{"source": "PubChem BioAssay AID1508597 (Cure First, 2020)", "purpose": "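Knock-downs altering ovarian cancer cell survival with or without PARP inhibitor rucaparib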 (primary screen)", "cells": "human ovarian carcinoma lines grown from tumours: OCI-P5x (papillary serous) and OCI-C5x (clear cell)", "reagents": "siRNA pool against human genes, 1.25 pmol siRNA per well", "time to read-out": "72 h or 96 h, depending on the cell culture", "treatment": "rucaparib 20 µM (about IC30) or vehicle, present until read-out", "rucaparib or vehicle": "Vehicle", "cell line": "OCI-P5x (serous)", "read-out": "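Luminescent ATP-based viability assay read 72 or 96 h after transfection, depending on culture, given as normalised percent viability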", "direction": "viability, normalised: higher = more viable cells remaining", "hit rule": "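a well counts as a hit if its normalised viability is under 80 percent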", "meaning of the calls": "active = viability under 80%; inactive = viability 80% or more", "note": "This is a random part of the about 2,100 reagents, in one setting of the screen. 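Calls flag viability under 80% in either arm, not effects specific to rucaparib; the reference for percent is not stated.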 A reagent listed more than once was tested more than once; the source does not tell the runs apart. Reagent sequences are not shown. Not stated in the record: the 100% reference."}
{"Target gene":"EMSY (EMSY transcriptional repressor, BRCA2 interacting)","technical replicate":"1","viability, normalised (%)":56.3,"Call":"active"}
{"Target gene":"EMSY (EMSY transcriptional repressor, BRCA2 interacting)","technical replicate":"1","viability, normalised (%)":46,"Call":"active"}
{"Target gene":"EMSY (EMSY transcriptional repressor, BRCA2 interacting)","technical replicate":"2","viability, normalised (%)":43.3,"Call":"active"}
{"Target gene":"EMSY (EMSY transcriptional repressor, BRCA2 interacting)","technical replicate":"2","viability, normalised (%)":61.3,"Call":"active"}
{"Target gene":"EMSY (EMSY transcriptional repressor, BRCA2 interacting)","technical replicate":"3","viability, normalised (%)":66.3,"Call":"active"}
{"Target gene":"EMSY (EMSY transcriptional repressor, BRCA2 interacting)","technical replicate":"3","viability, normalised (%)":52.7,"Call":"active"}
{"Target gene":"ZGPAT (zinc finger CCCH-type and G-patch domain containing)","technical replicate":"1","viability, normalised (%)":76.8,"Call":"active"}
{"Target gene":"ZGPAT (zinc finger CCCH-type and G-patch domain containing)","technical replicate":"2","viability, normalised (%)":59,"Call":"active"}
{"Target gene":"ZGPAT (zinc finger CCCH-type and G-patch domain containing)","technical replicate":"3","viability, normalised (%)":40.1,"Call":"active"}
{"Target gene":"MAPK11 (mitogen-activated protein kinase 11)","technical replicate":"1","viability, normalised (%)":77.3,"Call":"active"}
{"Target gene":"MAPK11 (mitogen-activated protein kinase 11)","technical replicate":"2","viability, normalised (%)":83.5,"Call":"inactive"}
{"Target gene":"MAPK11 (mitogen-activated protein kinase 11)","technical replicate":"3","viability, normalised (%)":71.5,"Call":"active"}

Copied from the entries so far (2 entries):
{"Target gene":"ZGPAT (zinc finger CCCH-type and G-patch domain containing)","technical replicate":"3","viability, normalised (%)":40.1,"Call":"active"}
{"Target gene":"MAPK11 (mitogen-activated protein kinase 11)","technical replicate":"1","viability, normalised (%)":77.3,"Call":"active"}
